Laboratory results taken from US11938135B2, “Compositions and methods for treating vascular Ehlers Danlos syndrome and associated disorders” (The Johns Hopkins University, priority 2018, dated 2024).
At least one compound was matched to its structure with a doubt left.

Assays:
vEDS mice = experiment: Survival of drug-treated vEDS mice (death due to aortic dissection); assay type: in vivo, mouse; conditions: male mice; bicalutamide removed at 90 days of life
Description: Novel knock-in glycine substitution (Col3a1 G209S/+ and Col3a1 G938D/+) vEDS mice were created using CRISPR/Cas9.
To introduce each mutation, 3 guide RNAs (tracrRNA+crRNA) were designed to target the DNA regions flanking the intended mutation site. A DNA oligo repair template (ssDNA oligo) was also designed that included homologous sequences upstream and downstream of the target region, as well as the intended mutation. Pronuclear injection of one-cell C57BL/6J embryos was performed by the JHU Transgenic Core using standard microinjection techniques using a mix of Cas9 protein, tracrRNA, crRNA, and ssDNA oligo diluted in RNAse free injection buffer. Injected embryos were transferred into the oviducts of pseudopregnant ICR females using established techniques. Sanger sequencing of the site was utilized to confirm introduction of the mutation, and the mice were backcrossed for at least 4 generations to eliminate off-target effects. For the G209S mouse, the mutation introduced was c.625_626 GG>TC, corresponding to p.Gly210Ser in humans. For the G938D mouse, the mutation introduced was c.2813G>A, corresponding to […] in humans. The Wild-type Human Col3a1 mRNA NCBI Accession No: NM_000090.3; the wild-type Mouse Col3a1 mRNA NCBI Accession No.: NM_009930.2. […]

[1] = system: vEDS mice, first 30 days postpartum; experiment: Postpartum survival of lactating vEDS mice (pregnancy/breastfeeding model); assay type: in vivo, mouse; conditions: hydralazine 16 mg/kg/d or trametinib
Description: Previously, it was shown that pregnancy-associated aortic dissection is largely driven by lactation-associated oxytocin release and oxytocin-induced ERK signaling in MFS mouse aortas^11. Thus, oxytocin-induced ERK signaling was used as a method to test whether activation of the PLC/IP3/PKC/ERK axis would worsen the risk of aortic dissection.
Oxytocin-induced ERK signaling was used as a method to test the hypothesis that activation of the PLC/IP3/PKC/ERK axis would worsen the risk of aortic dissection.

| Compound | survival following removal of bicalutamide after puberty (vEDS mice) | dissection and death postpartum [1] |
| --- | --- | --- |
| CC(O)(CS(=O)(=O)c1ccc(F)cc1)C(=O)Nc1ccc(C#N)c(C(F)(F)F)c1 (centres unmarked) [bicalutamide] | did not continue to survive | – |
| CC(=O)Nc1cccc(-n2c(=O)n(C3CC3)c(=O)c3c(Nc4ccc(I)cc4F)n(C)c(=O)c(C)c32)c1 [trametinib] | – | able to prevent dissection and death |
